No constants are given. Whether binding was seen depends on the method and setting. Binding seen in cells or lysates may run through a third protein. Here binding means that the protein was enriched with, or labelled near, the bait; the list need not be complete.
Molecular target: histidine-tagged TlpD (TlpD-Hisx6) (H. pylori) (UniProt B5Z6X0)
Assay: affinity purification with mass spectrometry; TlpD-Hisx6 pulled down on Talon (Cobalt2+-coupled) beads from cleared lysates of plate-grown H. pylori N6 tlpD (TlpD-Hisx6); bands >82 kDa seen only against the tlpD mutant control were cut from Coomassie-stained 12% SDS gels and analysed by MS/MS; two independent experiments

Amino acid sequences for entries named in this document (tags omitted).
UniProt B5Z6X0: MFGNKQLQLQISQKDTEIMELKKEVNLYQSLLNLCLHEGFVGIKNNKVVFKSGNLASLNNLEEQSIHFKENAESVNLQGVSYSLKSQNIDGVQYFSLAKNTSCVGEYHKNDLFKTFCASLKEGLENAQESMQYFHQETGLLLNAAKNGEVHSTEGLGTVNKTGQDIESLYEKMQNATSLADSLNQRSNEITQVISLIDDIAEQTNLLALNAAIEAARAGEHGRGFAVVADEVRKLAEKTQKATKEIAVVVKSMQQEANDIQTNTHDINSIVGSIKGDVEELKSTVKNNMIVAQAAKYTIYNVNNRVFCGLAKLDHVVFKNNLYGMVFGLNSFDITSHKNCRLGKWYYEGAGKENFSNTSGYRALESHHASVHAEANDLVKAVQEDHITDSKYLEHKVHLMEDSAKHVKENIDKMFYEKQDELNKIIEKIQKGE
UniProt P77872: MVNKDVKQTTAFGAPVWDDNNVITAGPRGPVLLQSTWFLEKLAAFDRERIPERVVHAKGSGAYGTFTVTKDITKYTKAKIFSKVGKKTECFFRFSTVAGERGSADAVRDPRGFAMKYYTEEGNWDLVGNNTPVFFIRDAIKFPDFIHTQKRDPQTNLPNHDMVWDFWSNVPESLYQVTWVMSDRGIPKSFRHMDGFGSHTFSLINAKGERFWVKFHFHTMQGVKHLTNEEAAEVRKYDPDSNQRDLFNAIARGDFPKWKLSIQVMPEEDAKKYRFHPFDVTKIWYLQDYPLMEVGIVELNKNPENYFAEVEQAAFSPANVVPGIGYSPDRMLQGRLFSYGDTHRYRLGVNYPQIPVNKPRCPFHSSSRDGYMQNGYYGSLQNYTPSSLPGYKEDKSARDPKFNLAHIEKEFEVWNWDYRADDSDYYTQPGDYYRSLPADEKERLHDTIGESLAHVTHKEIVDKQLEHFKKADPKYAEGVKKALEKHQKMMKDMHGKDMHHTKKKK

Substance: catalase KatA (from UniProt P77872 1-505) (enzyme)
- binding: binds
